Among all 360,000 compounds or so, about 7,500 (2.1%) were called active. Inconclusive means that the source gave no clear call. Such entries were picked first, then a sample of the others. Calls come from the whole dose curve; as a rule, active = well fitted inhibition curve with a large enough effect; inconclusive = small, poorly fitted or top-dose-only effect, or effect the other way; inactive = flat fitted curve, though single readings scatter. Potencies beside an inconclusive call are fits to weak or partial responses and may not hold up.
Assay: Nrf2 qHTS screen for inhibitors; note: nearly all actives have a fitted effect of over 60% in size
Conditions: A549 ARE-Fluc reporter, luciferase luminescence, 18-24 h; activity change, negative = inhibition: at 46 µM (top of the series)
How it was run: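 Quantitative HTS in A549 cells stably bearing an antioxidant response element-firefly luciferase construct. Inhibition of Nrf2-driven transcription was scored by luminescence after 18-24 h of compound exposure at 37 °C.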
% is set by controls: 0 for no effect and ±100 for the full control effect; potency is the fitted concentration of half-maximal effect.

Structure (SMILES)	Potency	activity change, negative = inhibition
Cc1csc(Nc2ccc(C(=O)O)cc2)n1	inconclusive: 18.4 µM [activator, single point]	
Oc1ccccc1C1NN=C(c2ccccc2)S1 (stereo not given)	inconclusive: 13 µM [activator, partial curve]	
O=C(N/N=C\c1cc(Br)cs1)C1COc2ccccc2O1 (stereo not given)	inconclusive: 20.6 µM [falling, single point]	
COc1ccc(CN(C)C(=O)c2[nH]c(C)c(C(C)=O)c2C)c(OC)c1OC	inconclusive: 10.3 µM [falling, partial curve, poor fit]	
O=[N+]([O-])c1ccc(Cl)c(C2Nc3cccc4cccc(c34)N2)c1	inconclusive: 16.4 µM [falling, single point]	
COc1ccc(-c2nc(C)sc2CC(=O)O)cc1	inconclusive: 0.0052 µM [falling, full curve, poor fit]	
CCCCN(CC)CCNC(=O)C1CCN(c2nnc(C)c3c(C)n(-c4ccc(C)cc4)nc23)CC1	inconclusive: 11.6 µM [activator, partial curve, poor fit]	
NS(=O)(=O)c1ccc(NC(=O)CCC(=O)c2ccc(Cl)s2)cc1		inactive: 21.5%
O=C(Nc1cc(S(=O)(=O)N2CCOCC2)ccc1N1CCCCC1)c1ccccc1Br	inconclusive: 32.6 µM [falling, partial curve, poor fit]	
Cc1noc2ncnc(N3CCN(c4ccccc4F)CC3)c12	inconclusive: 23.1 µM [falling, single point]	
Cn1cc([N+](=O)[O-])c(C(=O)Nc2ccc(C3CCCCC3)cc2)n1	inconclusive: 11.6 µM [activator, partial curve, poor fit]	
CCSCCOC(=O)C1=C(C)NC(=O)NC1c1ccccc1 (stereo not given)	inconclusive: 2.59 µM [falling, partial curve, poor fit]	
CCCNC(=O)c1ccc2nc(-c3ccccc3)c(-c3ccccc3)nc2c1	inconclusive: 23.1 µM [falling, partial curve, poor fit]	
COc1ccc(/C=C/C(=O)Nc2ccc(OC)nc2)cc1	inconclusive: 20.6 µM [activator, single point]	
CCOC(=O)C(=O)Cc1nc(OCc2ccccc2)cc(OCc2ccccc2)n1		inactive: -10.2%
Cc1cccc(CSc2nc3cccnc3n2Cc2ccc(C(=O)NCc3ccco3)cc2)c1	inconclusive: 20.6 µM [falling, single point]	
CCOC(=O)c1cccc(NC(=O)C2CCN(c3ncnc4c3nc3n4CCCCC3)CC2)c1	inconclusive: 4.11 µM [falling, partial curve, poor fit]	
O=C(C1CCC(CNS(=O)(=O)c2ccccc2)CC1)N1CCCCC1 (stereo not given)	inconclusive: 16.4 µM [falling, partial curve, poor fit]	
CCc1ccc2[nH]c(=O)c(CN(Cc3ccco3)Cc3nnnn3Cc3ccco3)cc2c1	inconclusive: 20.6 µM [falling, partial curve]	
Cc1ccc(-c2nnc(NCc3nc4ccccc4[nH]3)c3ccccc23)cc1S(=O)(=O)N1CCOCC1	inconclusive: 16.4 µM [falling, single point]	

Structure (SMILES)	Potency	activity change, negative = inhibition
Cc1ccc(-c2nnc(N3CCN(c4ccccn4)CC3)c3ccccc23)cc1	active: 23.1 µM	
Cc1cccc(C)c1OCCn1c(C2CC(=O)N(Cc3ccc(F)cc3)C2)nc2ccccc21 (stereo not given)	inconclusive: 23.1 µM [falling, single point]	
O=C(Nc1ccccc1Cl)N1CCN(c2ccccn2)CC1	inconclusive: 18.4 µM [falling, single point]	
CC(=O)Nc1ccc(Nc2nc(C(F)(F)F)nc3c2nnn3Cc2ccccc2Cl)cc1	inconclusive: 20.6 µM [falling, partial curve, poor fit]	
O=C(CCN1C(=O)/C(=C\c2ccccc2)SC1=S)N1CCOCC1	inconclusive: 23.1 µM [activator, single point]	
O=C(CCS(=O)(=O)c1cccc2nonc12)Nc1cccc(F)c1		inactive: 7.87% [at 9.27 µM]
CN(Cc1nc2ccccc2c(=O)[nH]1)C(=O)c1cccc(S(=O)(=O)N2CCCCCC2)c1	inconclusive: 29.1 µM [falling, single point]	
CN(C)C(=O)COc1ccc(S(=O)(=O)c2ccc(OCC(=O)N(C)C)cc2)cc1	inconclusive: 18.4 µM [activator, single point]	
O=C(c1cccs1)n1nc(NCc2ccccc2)nc1NCc1ccccc1	inconclusive: 23.1 µM [falling, single point]	
S=C(NCCCN1CCOCC1)Nc1ccc(-c2nc3ccccc3[nH]2)cc1	inconclusive: 5.8 µM [activator, partial curve]	
CN(Cc1cccc(F)c1)C(=O)c1ccc(S(=O)(=O)N2CCOCC2)cc1		inactive: -0.79%
COc1ccc(N2CCN(C(=O)c3cc(NS(=O)(=O)c4ccc(F)cc4)ccn3)CC2)cc1		inactive: -15%
Cc1cc(NC(=O)c2ccco2)ccc1-n1cnnn1	inconclusive: 2.31 µM [activator, partial curve]	
CCOc1ccc2[nH]c(=O)c(CN(CCO)C(c3nnnn3C3CCCCC3)C(C)C)cc2c1 (stereo not given)		inactive: -13.1%
COc1ccc(Cn2ccc3nc(C)c(C(=O)NCc4ccc(C)cc4)cc3c2=O)cc1	inconclusive: 11.6 µM [falling, partial curve, poor fit]	
Cc1cc(CNC(=O)c2cc(-c3ccccc3)nc3ccccc23)nn1C	inconclusive: 6.51 µM [falling, single point]	
CC1(C)CC(=O)c2cc(-c3nc(-c4ccc(Cl)cc4)cs3)c(=O)n(-c3ccc(F)cc3)c2C1		inactive: -12.9%
Cc1ccc(S(=O)(=O)N2CCN(C(=O)COC(=O)c3c(C)cc(C)cc3C)CC2)c(C)c1	inconclusive: 29.1 µM [falling, single point]	
Cc1cc2c(ccc3[nH]onc32)n1	inconclusive: 23.1 µM [falling, partial curve, poor fit]	
C/C(=N/OCc1ccc(Br)cc1)c1ccccn1	inconclusive: 18.4 µM [activator, partial curve]	

Single entries from the list:
Value of Cc1cc2c(ccc3[nH]onc32)n1 under Potency: inconclusive: 23.1 µM [falling, partial curve, poor fit]
Value of O=C(c1cccs1)n1nc(NCc2ccccc2)nc1NCc1ccccc1 under Potency: inconclusive: 23.1 µM [falling, single point]
